PubChem BioAssay AID1259308 – NCATS – 2017
Shown is one part, drawn at random, of about 59,000 reagents. About 1,510 of all reagents (2.6%) were called active. 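Calls use total luciferase alone and ignore viability, so some active siRNAs may act by altering cell number.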 The numbers tell different reagents against one gene apart. Not all columns of the deposit are shown.

Aim: 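Genes whose loss raises luciferase production in HEK293 cells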 (primary screen)
Cells: human HEK293 embryonic kidney cells stably expressing firefly luciferase (HEK-CMV-Luc2-Hygro)
Reagent: single siRNA against human genes, 0.8 pmol siRNA per well
Timing: 72 h
Read-out: 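Luciferase light (ONE-Glo) measured on one replicate plate set and viability (CellTiter-Glo) on the other, scaled to a negative control siRNA, with robust z-scores and luciferase per cell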
Direction: total luciferase, z-score: higher = more reporter protein produced
Call rule: 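Active when the median/MAD z-score for overall luciferase is greater than 3; a gene was taken forward for validation with new siRNAs if at least two of its three siRNAs passed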
Calls: active = raised luciferase; inactive = no rise

| Gene | reagent no. | total luciferase, z-score | Outcome |
| --- | --- | --- | --- |
| RMND5A (GeneID 64795) | 1 | -1.98 | inactive |
| RMND5A (GeneID 64795) | 2 | 2.07 | inactive |
| RMND5A (GeneID 64795) | 3 | -0.563 | inactive |
| OPN1MW (GeneID 2652) | 1 | 0.894 | inactive |
| OPN1MW (GeneID 2652) | 2 | -1.42 | inactive |
| OPN1MW (GeneID 2652) | 3 | -1.03 | inactive |
| CFAP44 (GeneID 55779) | 1 | -0.486 | inactive |
| CFAP44 (GeneID 55779) | 2 | -0.174 | inactive |
| CFAP44 (GeneID 55779) | 3 | 1.01 | inactive |

A stretch taken from the entries so far:
| Gene | reagent no. | total luciferase, z-score | Outcome |
| --- | --- | --- | --- |
| RMND5A (GeneID 64795) | 2 | 2.07 | inactive |
| RMND5A (GeneID 64795) | 3 | -0.563 | inactive |

Next entries follow:
| Gene | reagent no. | total luciferase, z-score | Outcome |
| --- | --- | --- | --- |
| SIX1 (GeneID 6495) | 1 | -0.323 | inactive |
| SIX1 (GeneID 6495) | 2 | 2.21 | inactive |
| SIX1 (GeneID 6495) | 3 | -0.546 | inactive |
| TGFBR1 (GeneID 7046) | 1 | -0.284 | inactive |
| TGFBR1 (GeneID 7046) | 2 | 1.06 | inactive |
| TGFBR1 (GeneID 7046) | 3 | -0.109 | inactive |
| IFT81 (GeneID 28981) | 1 | 0.809 | inactive |
| IFT81 (GeneID 28981) | 2 | 0.33 | inactive |
| IFT81 (GeneID 28981) | 3 | 0.698 | inactive |
| MAGED2 (GeneID 10916) | 1 | -3.04 | inactive |
| MAGED2 (GeneID 10916) | 2 | 1.94 | inactive |
| MAGED2 (GeneID 10916) | 3 | 1.98 | inactive |
| GOLM1 (GeneID 51280) | 1 | -0.957 | inactive |
| GOLM1 (GeneID 51280) | 2 | -0.362 | inactive |
| GOLM1 (GeneID 51280) | 3 | 0.116 | inactive |
